Test results as given in the supplement of paper PMC12823440, “Inhibitors supercharge kinase turnover through native proteolytic circuits” (Nature, 2025).
This is one part of the list. The calls rarely recur for the same compound in another form.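 In K562 cells expressing nanoluciferase-fused kinases, luminescence was recorded at 4 h intervals between 2 and 18 h, normalized as percent of control with DMSO at 100% and a positive control at 0%. A significant (2 sigma) signal drop marks a time point as decreased. The authors' rule for a hit is not shown and takes in more than the number of time points.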

Protein sequences, listed by entry. Tags and fused reporters are not part of them. Lines headed by an entry give the natural chain unless they say otherwise; changes in a name come on top.
UniProt Q15131: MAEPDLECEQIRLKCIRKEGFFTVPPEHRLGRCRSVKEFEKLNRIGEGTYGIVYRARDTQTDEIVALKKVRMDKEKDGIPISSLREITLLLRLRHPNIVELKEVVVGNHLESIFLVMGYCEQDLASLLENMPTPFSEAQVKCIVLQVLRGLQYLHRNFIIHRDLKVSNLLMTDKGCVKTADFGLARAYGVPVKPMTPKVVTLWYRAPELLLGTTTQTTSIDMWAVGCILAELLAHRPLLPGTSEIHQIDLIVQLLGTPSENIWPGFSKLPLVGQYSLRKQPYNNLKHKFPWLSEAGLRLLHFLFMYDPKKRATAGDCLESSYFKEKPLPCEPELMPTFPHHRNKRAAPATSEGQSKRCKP
UniProt P23458: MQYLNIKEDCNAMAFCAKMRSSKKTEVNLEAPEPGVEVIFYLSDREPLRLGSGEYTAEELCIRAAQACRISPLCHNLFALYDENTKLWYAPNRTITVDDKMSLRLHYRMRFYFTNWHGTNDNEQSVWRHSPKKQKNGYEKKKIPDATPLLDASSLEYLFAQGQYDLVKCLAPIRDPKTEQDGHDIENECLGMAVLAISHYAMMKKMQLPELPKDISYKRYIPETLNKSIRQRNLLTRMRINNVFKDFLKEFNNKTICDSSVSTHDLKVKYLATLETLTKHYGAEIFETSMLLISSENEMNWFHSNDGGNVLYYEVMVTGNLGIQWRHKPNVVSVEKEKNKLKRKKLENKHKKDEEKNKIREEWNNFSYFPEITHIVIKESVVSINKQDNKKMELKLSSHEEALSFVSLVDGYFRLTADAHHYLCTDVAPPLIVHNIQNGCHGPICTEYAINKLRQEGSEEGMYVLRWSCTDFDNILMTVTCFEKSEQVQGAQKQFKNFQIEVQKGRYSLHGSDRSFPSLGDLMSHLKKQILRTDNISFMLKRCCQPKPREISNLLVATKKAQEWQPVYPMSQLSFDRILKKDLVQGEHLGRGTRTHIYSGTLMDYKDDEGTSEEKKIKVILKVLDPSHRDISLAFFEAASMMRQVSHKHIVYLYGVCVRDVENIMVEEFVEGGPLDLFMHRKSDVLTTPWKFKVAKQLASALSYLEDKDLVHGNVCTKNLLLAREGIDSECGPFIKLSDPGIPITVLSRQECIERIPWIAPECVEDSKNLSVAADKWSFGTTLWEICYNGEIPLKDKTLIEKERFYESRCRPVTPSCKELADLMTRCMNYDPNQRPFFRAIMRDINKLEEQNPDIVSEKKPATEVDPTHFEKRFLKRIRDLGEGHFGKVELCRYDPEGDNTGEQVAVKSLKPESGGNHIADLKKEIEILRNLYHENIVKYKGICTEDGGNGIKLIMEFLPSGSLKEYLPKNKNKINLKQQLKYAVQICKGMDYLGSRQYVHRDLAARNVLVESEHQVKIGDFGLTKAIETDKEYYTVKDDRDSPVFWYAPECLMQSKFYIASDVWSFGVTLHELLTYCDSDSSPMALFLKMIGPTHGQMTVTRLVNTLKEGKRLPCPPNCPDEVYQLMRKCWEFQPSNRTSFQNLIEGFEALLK
UniProt P07949, whole entry, looked up: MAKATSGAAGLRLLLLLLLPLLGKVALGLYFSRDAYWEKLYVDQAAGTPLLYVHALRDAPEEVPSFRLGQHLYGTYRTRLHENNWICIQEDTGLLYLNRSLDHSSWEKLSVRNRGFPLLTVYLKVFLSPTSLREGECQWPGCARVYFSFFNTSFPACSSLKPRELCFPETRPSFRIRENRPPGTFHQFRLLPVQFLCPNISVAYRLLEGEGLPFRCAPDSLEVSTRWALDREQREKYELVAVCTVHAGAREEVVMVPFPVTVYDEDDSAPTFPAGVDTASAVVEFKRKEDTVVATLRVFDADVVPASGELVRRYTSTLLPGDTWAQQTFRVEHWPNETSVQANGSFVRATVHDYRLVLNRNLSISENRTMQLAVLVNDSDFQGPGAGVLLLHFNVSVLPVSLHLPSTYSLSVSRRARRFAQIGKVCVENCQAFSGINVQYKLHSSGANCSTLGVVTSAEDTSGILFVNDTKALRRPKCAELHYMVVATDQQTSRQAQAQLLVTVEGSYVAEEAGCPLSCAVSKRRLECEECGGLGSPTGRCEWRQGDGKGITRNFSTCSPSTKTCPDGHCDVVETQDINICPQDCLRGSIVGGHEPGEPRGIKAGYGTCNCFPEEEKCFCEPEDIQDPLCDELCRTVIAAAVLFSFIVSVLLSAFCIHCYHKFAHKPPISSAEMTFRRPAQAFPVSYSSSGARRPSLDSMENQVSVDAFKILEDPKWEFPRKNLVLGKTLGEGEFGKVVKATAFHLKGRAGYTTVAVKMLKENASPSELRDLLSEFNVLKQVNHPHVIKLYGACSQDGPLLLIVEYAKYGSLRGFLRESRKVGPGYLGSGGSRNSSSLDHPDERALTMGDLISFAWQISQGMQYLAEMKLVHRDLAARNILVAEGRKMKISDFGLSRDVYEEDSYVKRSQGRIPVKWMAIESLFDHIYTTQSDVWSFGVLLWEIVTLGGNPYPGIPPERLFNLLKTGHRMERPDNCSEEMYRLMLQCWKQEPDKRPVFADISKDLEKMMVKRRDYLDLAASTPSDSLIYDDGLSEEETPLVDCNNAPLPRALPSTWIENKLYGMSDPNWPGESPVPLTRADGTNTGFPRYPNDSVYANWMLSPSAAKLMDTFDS
UniProt P07949, whole entry M918T, looked up: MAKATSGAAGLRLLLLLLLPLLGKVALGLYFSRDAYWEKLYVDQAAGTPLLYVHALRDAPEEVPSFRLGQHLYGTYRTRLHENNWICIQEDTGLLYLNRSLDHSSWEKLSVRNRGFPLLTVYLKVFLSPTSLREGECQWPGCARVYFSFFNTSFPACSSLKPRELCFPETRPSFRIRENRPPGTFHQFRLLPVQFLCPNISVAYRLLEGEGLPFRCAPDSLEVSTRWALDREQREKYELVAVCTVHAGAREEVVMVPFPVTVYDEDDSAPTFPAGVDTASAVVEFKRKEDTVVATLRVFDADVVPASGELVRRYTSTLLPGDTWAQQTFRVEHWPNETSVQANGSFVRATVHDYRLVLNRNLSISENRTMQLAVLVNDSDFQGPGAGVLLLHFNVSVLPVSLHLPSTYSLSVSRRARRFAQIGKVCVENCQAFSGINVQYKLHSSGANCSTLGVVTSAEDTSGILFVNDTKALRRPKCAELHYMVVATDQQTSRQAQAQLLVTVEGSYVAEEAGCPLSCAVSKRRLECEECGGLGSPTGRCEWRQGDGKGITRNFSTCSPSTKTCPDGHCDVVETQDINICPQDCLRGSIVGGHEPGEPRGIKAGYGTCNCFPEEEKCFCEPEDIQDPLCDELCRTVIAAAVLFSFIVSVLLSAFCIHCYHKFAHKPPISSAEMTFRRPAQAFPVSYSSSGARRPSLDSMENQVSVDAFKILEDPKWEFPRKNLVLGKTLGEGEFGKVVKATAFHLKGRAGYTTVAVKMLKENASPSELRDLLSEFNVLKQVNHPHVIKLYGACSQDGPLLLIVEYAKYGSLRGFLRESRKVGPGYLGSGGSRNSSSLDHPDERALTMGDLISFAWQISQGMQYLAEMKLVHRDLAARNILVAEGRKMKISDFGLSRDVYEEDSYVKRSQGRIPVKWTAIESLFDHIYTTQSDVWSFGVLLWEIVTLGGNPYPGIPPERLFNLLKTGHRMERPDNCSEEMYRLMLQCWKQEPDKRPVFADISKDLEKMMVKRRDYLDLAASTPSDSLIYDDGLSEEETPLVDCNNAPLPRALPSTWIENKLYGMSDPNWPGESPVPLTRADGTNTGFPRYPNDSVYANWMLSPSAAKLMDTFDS
UniProt O14965: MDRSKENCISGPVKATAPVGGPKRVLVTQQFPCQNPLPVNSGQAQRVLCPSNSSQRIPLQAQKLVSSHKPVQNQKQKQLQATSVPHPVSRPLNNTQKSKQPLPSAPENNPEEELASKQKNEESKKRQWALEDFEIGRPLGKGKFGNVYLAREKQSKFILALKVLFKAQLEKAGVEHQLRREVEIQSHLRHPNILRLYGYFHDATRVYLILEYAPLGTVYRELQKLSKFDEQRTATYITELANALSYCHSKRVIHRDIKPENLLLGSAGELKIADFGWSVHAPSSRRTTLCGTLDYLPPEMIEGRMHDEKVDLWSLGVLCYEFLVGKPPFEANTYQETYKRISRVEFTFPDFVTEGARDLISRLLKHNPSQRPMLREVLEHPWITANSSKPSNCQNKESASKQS
UniProt P22607, whole entry, looked up: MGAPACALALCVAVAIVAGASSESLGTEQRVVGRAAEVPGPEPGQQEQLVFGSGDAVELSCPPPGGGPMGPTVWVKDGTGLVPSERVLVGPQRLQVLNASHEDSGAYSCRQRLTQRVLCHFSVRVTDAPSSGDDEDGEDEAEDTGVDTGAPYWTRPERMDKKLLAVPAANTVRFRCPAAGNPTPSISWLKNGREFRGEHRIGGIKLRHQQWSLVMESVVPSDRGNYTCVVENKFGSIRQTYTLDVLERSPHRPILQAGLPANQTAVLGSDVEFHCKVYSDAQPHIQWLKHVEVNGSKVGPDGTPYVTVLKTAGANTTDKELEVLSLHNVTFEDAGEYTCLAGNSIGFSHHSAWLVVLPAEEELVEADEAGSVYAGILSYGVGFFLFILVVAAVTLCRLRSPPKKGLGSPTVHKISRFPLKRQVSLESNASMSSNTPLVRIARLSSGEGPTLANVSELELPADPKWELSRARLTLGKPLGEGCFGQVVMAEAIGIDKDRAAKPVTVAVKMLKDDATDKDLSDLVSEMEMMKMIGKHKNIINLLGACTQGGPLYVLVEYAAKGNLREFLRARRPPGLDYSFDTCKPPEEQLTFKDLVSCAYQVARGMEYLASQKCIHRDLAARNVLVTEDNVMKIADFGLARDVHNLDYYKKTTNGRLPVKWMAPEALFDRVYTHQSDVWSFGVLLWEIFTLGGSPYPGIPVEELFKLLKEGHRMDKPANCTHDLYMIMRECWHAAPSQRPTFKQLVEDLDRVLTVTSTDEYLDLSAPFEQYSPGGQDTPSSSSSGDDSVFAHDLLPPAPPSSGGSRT
UniProt P29317, whole entry: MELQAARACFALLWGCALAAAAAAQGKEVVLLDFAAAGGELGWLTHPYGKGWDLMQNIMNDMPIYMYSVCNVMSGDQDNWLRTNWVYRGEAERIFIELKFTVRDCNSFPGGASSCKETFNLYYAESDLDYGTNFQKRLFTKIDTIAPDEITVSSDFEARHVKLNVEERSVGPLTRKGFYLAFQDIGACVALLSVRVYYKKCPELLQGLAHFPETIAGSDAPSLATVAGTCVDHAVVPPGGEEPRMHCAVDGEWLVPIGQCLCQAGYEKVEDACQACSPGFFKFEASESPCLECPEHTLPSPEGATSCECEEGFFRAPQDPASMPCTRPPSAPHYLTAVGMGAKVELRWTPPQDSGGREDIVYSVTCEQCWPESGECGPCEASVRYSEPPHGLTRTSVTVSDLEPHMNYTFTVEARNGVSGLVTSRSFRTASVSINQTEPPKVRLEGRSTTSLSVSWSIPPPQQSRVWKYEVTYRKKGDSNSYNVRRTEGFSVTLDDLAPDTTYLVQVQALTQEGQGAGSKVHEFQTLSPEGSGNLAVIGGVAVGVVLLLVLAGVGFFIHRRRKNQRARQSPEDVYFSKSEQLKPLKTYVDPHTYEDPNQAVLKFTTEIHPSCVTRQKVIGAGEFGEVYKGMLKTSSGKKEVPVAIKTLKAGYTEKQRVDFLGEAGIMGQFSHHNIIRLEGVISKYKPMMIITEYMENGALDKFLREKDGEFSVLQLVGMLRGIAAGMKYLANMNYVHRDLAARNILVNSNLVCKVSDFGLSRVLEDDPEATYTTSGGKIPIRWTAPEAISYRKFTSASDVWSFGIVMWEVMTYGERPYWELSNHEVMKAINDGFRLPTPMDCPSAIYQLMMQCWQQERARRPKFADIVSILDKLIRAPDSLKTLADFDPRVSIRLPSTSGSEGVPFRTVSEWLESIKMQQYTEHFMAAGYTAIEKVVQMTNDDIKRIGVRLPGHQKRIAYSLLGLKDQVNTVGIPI
UniProt Q9UQM7, whole entry: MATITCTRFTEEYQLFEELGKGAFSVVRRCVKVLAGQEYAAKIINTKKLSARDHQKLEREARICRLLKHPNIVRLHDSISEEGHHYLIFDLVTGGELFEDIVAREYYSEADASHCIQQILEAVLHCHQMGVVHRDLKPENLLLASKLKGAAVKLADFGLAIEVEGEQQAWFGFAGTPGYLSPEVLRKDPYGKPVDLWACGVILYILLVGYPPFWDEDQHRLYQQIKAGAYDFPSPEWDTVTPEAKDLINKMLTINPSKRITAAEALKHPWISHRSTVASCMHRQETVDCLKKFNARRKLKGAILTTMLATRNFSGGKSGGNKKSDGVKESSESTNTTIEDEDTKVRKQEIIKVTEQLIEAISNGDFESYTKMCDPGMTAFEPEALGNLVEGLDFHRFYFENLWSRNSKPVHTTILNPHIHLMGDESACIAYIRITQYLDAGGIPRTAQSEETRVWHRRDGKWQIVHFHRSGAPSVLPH

How the values were obtained:
Assay in all cases: number of time points (of 5) at which kinase-Nluc abundance scored as decreased, DMSO-normalised (count); higher = more persistent destabilization
[1] = compound: CCS(=O)(=O)N1CCN(c2ccc(Nc3ncc(C(N)=O)c(NC4CC4)n3)cc2)CC1 [Cerdulatinib (hydrochloride)]; conditions: 10 µM; K562; 2-18 h
[2] = compound: CCS(=O)(=O)N1CCN(c2ccc(Nc3ncc(C(N)=O)c(NC4CC4)n3)cc2)CC1 [Cerdulatinib]; conditions: 10 µM; K562; 2-18 h
[3] = compound: CCc1nc(C(N)=O)c(Nc2ccc(N3CCC(N4CCN(C)CC4)CC3)c(OC)c2)nc1NC1CCOCC1 [Gilteritinib hemifumarate]; conditions: 2 µM; K562; 2-18 h
[4] = compound: CCc1nc(C(N)=O)c(Nc2ccc(N3CCC(N4CCN(C)CC4)CC3)c(OC)c2)nc1NC1CCOCC1 [Gilteritinib]; conditions: 2 µM; K562; 2-18 h
[5] = compound: CN(C)C(=N)NC(=N)N [Metformin (hydrochloride)]; conditions: 10 µM; K562; 2-18 h
[6] = compound: CN(C)C(=N)NC(=N)N [Metformin]; conditions: 10 µM; K562; 2-18 h
[7] = compound: CN(C)C(=O)c1cc2cnc(Nc3ccc(N4CCNCC4)cn3)nc2n1C1CCCC1 [Ribociclib hydrochloride]; conditions: 2.5 µM; K562; 2-18 h
[8] = compound: CN(C)C(=O)c1cc2cnc(Nc3ccc(N4CCNCC4)cn3)nc2n1C1CCCC1 [Ribociclib succinate hydrate]; conditions: 2.5 µM; K562; 2-18 h
[9] = compound: CN(C)C(=O)c1cc2cnc(Nc3ccc(N4CCNCC4)cn3)nc2n1C1CCCC1 [Ribociclib succinate]; conditions: 10 µM; K562; 2-18 h
[10] = compound: CN(C)C(=O)c1cc2cnc(Nc3ccc(N4CCNCC4)cn3)nc2n1C1CCCC1 [Ribociclib]; conditions: 10 µM; K562; 2-18 h
[11] = compound: CN(C)C/C=C/C(=O)Nc1cc2c(Nc3ccc(F)c(Cl)c3)ncnc2cc1O[C@H]1CCOC1 [Afatinib (dimaleate)]; conditions: 2.5 µM; K562; 2-18 h
[12] = compound: CN(C)C/C=C/C(=O)Nc1cc2c(Nc3ccc(F)c(Cl)c3)ncnc2cc1O[C@H]1CCOC1 [Afatinib]; conditions: 10 µM; K562; 2-18 h
[13] = compound: CN1CCCN(C(=O)c2cccc(-c3ccc(/C=C4/C(=O)Nc5ccc(Cl)cc54)o3)c2)CC1 [CX-6258 (hydrochloride hydrate)]; conditions: 2.5 µM; K562; 2-18 h
[14] = compound: CN1CCCN(C(=O)c2cccc(-c3ccc(/C=C4/C(=O)Nc5ccc(Cl)cc54)o3)c2)CC1 [CX-6258 (hydrochloride)]; conditions: 2.5 µM; K562; 2-18 h
[15] = compound: CN1CCCN(C(=O)c2cccc(-c3ccc(/C=C4/C(=O)Nc5ccc(Cl)cc54)o3)c2)CC1; conditions: 2.5 µM; K562; 2-18 h
[16] = compound: CNC(=O)c1cc(Oc2ccc(NC(=O)Nc3ccc(Cl)c(C(F)(F)F)c3)c(F)c2)ccn1 [Regorafenib (monohydrate)]; conditions: 2.5 µM; K562; 2-18 h
[17] = compound: CNC(=O)c1cc(Oc2ccc(NC(=O)Nc3ccc(Cl)c(C(F)(F)F)c3)c(F)c2)ccn1 [Regorafenib]; conditions: 2.5 µM; K562; 2-18 h
[18] = compound: CNC(=O)c1ccc(Nc2ncc(C(F)(F)F)c(NCc3nccnc3N(C)S(C)(=O)=O)n2)cc1 [Defactinib (hydrochloride)]; conditions: 10 µM; K562; 2-18 h
[19] = compound: CNC(=O)c1ccc(Nc2ncc(C(F)(F)F)c(NCc3nccnc3N(C)S(C)(=O)=O)n2)cc1 [Defactinib]; conditions: 10 µM; K562; 2-18 h
[20] = compound: CNC(=O)c1ccccc1Nc1cc(Nc2ccc(N3CCOCC3)cc2OC)ncc1C(F)(F)F [PND-1186 (hydrochloride)]; conditions: 10 µM; K562; 2-18 h

Measured: number of time points

ALK (UniProt Q9UM73)
2: [12] | [18] | [19]
3: [1]
0: all other assays above

RPS6KA1 (UniProt Q15418)
0: all assays above

CDK3 (UniProt Q00526)
0: all assays above

BMX (UniProt P51813)
1: [2]
3: [1] | [12] | [16] | [17] | [19]
0: all other assays above

DYRK2 (UniProt Q92630)
2: [17] | [19]
3: [2] | [12]
4: [1]
1: [16]
0: all other assays above

MKNK1 (UniProt Q9BUB5)
4: [1] | [12]
3: [2]
0: all other assays above

AURKB (UniProt Q96GD4)
4: [12]
3: [1]
0: all other assays above

DYRK1B (UniProt Q9Y463)
2: [12]
1: [1]
0: all other assays above

PTK2B (UniProt Q14289)
1: [12]
2: [1]
0: all other assays above

STK38 (UniProt Q15208)
2: [12]
1: [1]
0: all other assays above

PDGFRB (UniProt P09619)
3: [1]
4: [12] | [16] | [17]
0: all other assays above

RIOK1 (UniProt Q9BRS2)
2: [12]
3: [1]
0: all other assays above

PTK2 (UniProt Q05397)
3: [12] | [19]
2: [1] | [16]
1: [2] | [17]
0: all other assays above

CDK10 (UniProt Q15131)
5: [12]
3: [1]
0: all other assays above

JAK1 (UniProt P23458)
3: [1]
0: all other assays above

LMTK2 (UniProt Q8IWU2)
4: [2]
1: [20]
3: [1] | [18]
0: all other assays above

ZAK (UniProt Q9NYL2)
2: [12]
0: all other assays above

RET (UniProt P07949)
2: [12] | [19]
3: [1]
0: all other assays above

RET_M918T (clone: RET_mut) (UniProt P07949)
2: [17] | [19]
1: [12]
0: all other assays above

NTRK2 (UniProt Q16620)
1: [2]
3: [1]
0: all other assays above

AKT1 (UniProt P31749)
0: all assays above

Taken from the listing (two entries):
ZAK (UniProt Q9NYL2)
2: [12]
0: all other assays above

RET (UniProt P07949)
2: [12] | [19]
3: [1]
0: all other assays above

Going on with the list.

AURKA (UniProt O14965)
3: [17]
4: [12]
1: [1] | [16]
0: all other assays above

FGFR3 (UniProt P22607)
4: [1]
0: all other assays above

ROR2 (UniProt Q01974)
0: all assays above

EPHA2 (UniProt P29317)
2: [12]
3: [1]
0: all other assays above

SRC (UniProt P12931)
0: all assays above

CAMK2A (UniProt Q9UQM7)
0: all assays above

STK24 (UniProt Q9Y6E0)
0: all assays above

DDR1 (UniProt Q08345)
3: [19]
4: [1] | [2]
1: [12] | [13]
0: all other assays above

PDPK1 (UniProt O15530)
1: [12]
4: [1]
0: all other assays above

FYN (UniProt P06241)
4: [1] | [2] | [12]
3: [16]
0: all other assays above
